Laboratory results taken from article PMC8856959.
These are yes or no findings as the source states them, for the method shown. Binding seen in cells or lysates may run through a third protein. A yes stands for co-enrichment or nearness to the bait. Other partners may have been found.

Sequences of proteins named here, by UniProt entry; tags and fusion partners are left off.
UniProt Q15397: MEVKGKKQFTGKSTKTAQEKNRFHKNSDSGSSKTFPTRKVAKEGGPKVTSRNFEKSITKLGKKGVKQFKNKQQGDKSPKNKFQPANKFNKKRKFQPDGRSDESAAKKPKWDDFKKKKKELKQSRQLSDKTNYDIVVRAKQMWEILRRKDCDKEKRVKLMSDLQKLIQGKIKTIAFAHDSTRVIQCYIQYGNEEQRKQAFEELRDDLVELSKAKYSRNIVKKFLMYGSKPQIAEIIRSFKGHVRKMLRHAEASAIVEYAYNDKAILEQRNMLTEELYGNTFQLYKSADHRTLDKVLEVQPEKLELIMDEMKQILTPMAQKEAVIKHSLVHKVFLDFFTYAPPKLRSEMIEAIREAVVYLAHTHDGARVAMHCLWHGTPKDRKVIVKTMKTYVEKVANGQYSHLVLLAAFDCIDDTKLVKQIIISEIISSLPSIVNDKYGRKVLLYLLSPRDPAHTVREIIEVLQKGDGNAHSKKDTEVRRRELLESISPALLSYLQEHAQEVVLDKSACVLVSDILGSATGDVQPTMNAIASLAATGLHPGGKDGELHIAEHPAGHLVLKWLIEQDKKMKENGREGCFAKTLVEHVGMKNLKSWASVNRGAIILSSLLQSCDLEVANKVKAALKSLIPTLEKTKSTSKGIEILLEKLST
UniProt P06748: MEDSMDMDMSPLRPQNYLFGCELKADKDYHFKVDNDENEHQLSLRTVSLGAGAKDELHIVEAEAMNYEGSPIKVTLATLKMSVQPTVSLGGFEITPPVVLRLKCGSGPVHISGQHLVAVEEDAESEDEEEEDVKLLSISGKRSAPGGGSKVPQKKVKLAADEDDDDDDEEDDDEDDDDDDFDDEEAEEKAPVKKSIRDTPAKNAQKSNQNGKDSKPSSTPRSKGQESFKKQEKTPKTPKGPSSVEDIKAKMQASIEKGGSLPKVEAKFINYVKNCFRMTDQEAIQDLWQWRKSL

Target: Puf-A (human (endogenous in HCT116 and H1299)) (UniProt Q15397)
Test: affinity purification with mass spectrometry; proteins immunoprecipitated by Puf-A antibody, analysed by mass spectrometry

For “nucleophosmin (from UniProt P06748 1-294)”, the binding was “binds”.
